{
  "source": "PubChem BioAssay AID504834",
  "about": "(National Center for Advancing Translational Sciences (NCATS), 2011)",
  "note": "About 22,000 (6.9%) of roughly 320,000 compounds were called active. The inconclusive results got no clear call from the source; some entries with a clear call stand among them for comparison. Calls follow the shape of the dose curve; as a rule, active = well fitted inhibition curve with a large enough effect; inconclusive = small, poorly fitted or top-dose-only effect, or another doubt; inactive = no such curve, though single readings can be large or run the other way. Where the call is inconclusive, the potency comes from a doubtful curve fit. % is scaled to controls: 0 for no effect and ±100 for the full control effect; potency is read from the fitted curve at half-maximal effect.",
  "data": [
    {"assay": "Primary qHTS for delayed death inhibitors of the malarial parasite plastid, 96 hour incubation", "conditions": "P. falciparum luciferase reporter growth; series mostly up to 28.7 µM", "method_in_brief": "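Readout is luminescence from an integrated firefly luciferase in P. falciparum. Red cells, 2% hematocrit and 0.05% parasitemia final, were cultured with compound through two parasite generations (96 hours) at 37 C, 5% CO2.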", "values": [
      {"smiles": "CC(NC(=O)c1ccc(C(F)(F)F)cc1)C(c1ccccc1)N1CCOCC1", "note": "(stereo unspecified)", "Potency": "inconclusive: 5.86 µM [inhibitor, partial curve, poor fit]"},
      {"smiles": "O=C(NNC(=O)C1CCN(S(=O)(=O)c2ccccc2)CC1)c1ccccc1O", "Potency": "inconclusive: 16.5 µM [inhibitor, partial curve, poor fit]"},
      {"smiles": "CCOC(=O)Nc1sc2c(c1C(N)=O)CCC(C)C2", "note": "(stereo unspecified)", "Potency": "inactive"},
      {"smiles": "COc1ccccc1C1C(C(=O)c2ccc(C)o2)=C(O)C(=O)N1c1cc(C)on1", "note": "(stereo unspecified)", "Potency": "inconclusive: 18.5 µM [inhibitor, single point]"},
      {"smiles": "CN(C[C@H](Cc1ccccc1)N(C[C@H](c1ccccc1)N(CCc1ccccc1)N=O)N=O)N=O", "Potency": "active: 13.1 µM"},
      {"smiles": "CS(=O)(=O)N(Cc1ccc(Cl)cc1)c1ccc(C(=O)N2CCN(c3ccccc3)CC2)cc1", "Potency": "inconclusive: 18.5 µM [inhibitor, partial curve, poor fit]"},
      {"smiles": "COC(=O)c1ccc(C2C(C(=O)c3cc4ccccc4o3)=C(O)C(=O)N2c2cc(C)on2)cc1", "note": "(stereo unspecified)", "Potency": "active: 7.38 µM"},
      {"smiles": "CCN(CC)S(=O)(=O)c1cccc(C(=O)OCC(=O)c2ccc3c(c2)OCCO3)c1", "Potency": "inactive"},
      {"smiles": "O=c1oc2c3c4c(cc2c(C(F)(F)F)c1CCN1CCOCC1)CCCN4CCC3", "Potency": "inconclusive: 18.5 µM [inhibitor, single point]"},
      {"smiles": "CC(C)CC1C(C#N)=C(N)Oc2n[nH]c(-c3cccs3)c21", "note": "(stereo unspecified)", "Potency": "inconclusive: 2.94 µM [inhibitor, full curve]"},
      {"smiles": "Cc1cc[n+](CCc2ccccc2)cc1C", "Potency": "inactive"},
      {"smiles": "Cc1nn(-c2ccccc2)c2sc(C(=O)OC3CCOC3=O)cc12", "note": "(stereo unspecified)", "Potency": "inconclusive: 3.7 µM [inhibitor, partial curve]"},
      {"smiles": "CC(C(=O)N1CCCc2ccccc21)N1CCN(S(=O)(=O)c2ccccc2F)CC1", "note": "(stereo unspecified)", "Potency": "inconclusive: 11.7 µM [inhibitor, single point]"},
      {"smiles": "Cc1cc2c(n1-c1ccc(Cl)cc1)CC(C)(C)CC2=O", "Potency": "inconclusive: 0.117 µM [inhibitor, full curve, poor fit]"},
      {"smiles": "COc1cc(C(=O)OCC(=O)NCc2ccc(F)cc2)cc(NC(=O)c2cccs2)c1OC", "Potency": "inactive"},
      {"smiles": "COCCNC(=O)c1c(N)n(Cc2ccco2)c2nc3ccccc3nc12", "Potency": "active: 13.1 µM"},
      {"smiles": "CN(C)CCCNc1cc(C(C)(C)C)nc2c(-c3ccccc3)cnn12", "Potency": "inconclusive: 10.4 µM [inhibitor, single point]"},
      {"smiles": "O=C(CSc1nc2ccccc2c(=O)n1-c1ccc(F)cc1)Nc1cc(S(=O)(=O)N2CCOCC2)ccc1Cl", "Potency": "active: 3.7 µM"},
      {"smiles": "CCC(=O)Nc1ccc2c(c1)nc(CN1CCCCC1)n2C", "Potency": "inactive"},
      {"smiles": "CC(C)Cn1cc(F)c(=O)n(CC(C)C)c1=O", "Potency": "inconclusive: 1.17 µM [inhibitor, full curve]"},
      {"smiles": "Cc1cc(C)n2nc(C(=O)OC(C)C(=O)c3cc(C)c(C)cc3C)nc2n1", "note": "(stereo unspecified)", "Potency": "inactive"},
      {"smiles": "COc1ccc(Br)cc1S(=O)(=O)NCc1ccccc1", "Potency": "inactive"},
      {"smiles": "COc1ccc(NS(=O)(=O)c2ccc3c(c2)NC(=O)CC(=O)N3)cc1OC", "Potency": "inactive"},
      {"smiles": "CC(C)OC(=O)C(C(=O)OC(C)C)=C1SC=CS1", "Potency": "inactive"},
      {"smiles": "Cc1ccc(C(=O)NC(N2CCCC2)C(Cl)(Cl)Cl)cc1", "note": "(stereo unspecified)", "Potency": "inconclusive: 0.0738 µM [inhibitor, full curve, poor fit]"},
      {"smiles": "COCCOC(=O)c1c(C)oc2ccc(NS(=O)(=O)c3ccccc3)cc12", "Potency": "inconclusive: 11.7 µM [inhibitor, partial curve, poor fit]"},
      {"smiles": "O=C(NCCc1ccccc1)C1CCN(C2CCN(Cc3ccco3)CC2)CC1", "Potency": "inconclusive: 18.5 µM [inhibitor, partial curve, poor fit]"},
      {"smiles": "COc1ccc2c(c1)C(NC(=O)C(F)(F)F)CC2=O", "note": "(stereo unspecified)", "Potency": "inactive"},
      {"smiles": "CCOC(=O)CCCOC(=O)c1ccc(S(=O)(=O)N(C)C)cc1", "Potency": "inconclusive: 18.5 µM [inhibitor, single point]"},
      {"smiles": "CCCCCCCNC(=O)c1cc(-c2ccncc2)nc2ccccc12", "Potency": "inconclusive: 2.94 µM [inhibitor, full curve]"},
      {"smiles": "CC(C)Sc1nc2c(c(=O)[nH]1)C(c1cccs1)C1=C(CC(C)(C)CC1=O)N2", "note": "(stereo unspecified)", "Potency": "inconclusive: 10.4 µM [inhibitor, single point]"},
      {"smiles": "Cc1cccc2c(N)c3c(nc12)N(C)CC3", "Potency": "inactive"},
      {"smiles": "CN1CCN(c2ccc(C(CC(N)=O)NC(=O)c3ccccc3)cc2[N+](=O)[O-])CC1", "note": "(stereo unspecified)", "Potency": "inconclusive: 4.15 µM [inhibitor, single point]"},
      {"smiles": "COc1ccc(C(=O)/C=C/c2cn(CC(O)CN3CCOCC3)c3ccccc23)cc1", "note": "(stereo unspecified)", "Potency": "active: 5.22 µM"},
      {"smiles": "O=C(c1cc(-c2ccc(Cl)cc2)on1)N1CCN(c2ccc(F)cc2)CC1", "Potency": "inconclusive: 18.5 µM [inhibitor, single point]"},
      {"smiles": "COc1cc(/C=C2/C(=O)NC(=O)N(c3ccc(C)cc3)C2=O)cc(OC)c1OC", "Potency": "inactive"},
      {"smiles": "COc1cccc(-n2c(=O)c3cc(OC)c(OC)cc3n(CC(=O)Nc3cc(C)[nH]n3)c2=O)c1", "Potency": "inconclusive: 7.38 µM [inhibitor, partial curve, poor fit]"},
      {"smiles": "CC(=O)c1ccc(N2CCN(C(=O)c3c(-c4ccccc4Cl)noc3C)CC2)cc1", "Potency": "inactive"},
      {"smiles": "COc1cccc(CN2CC(C(=O)NCCc3ccc(C)o3)CCC2=O)c1", "note": "(stereo unspecified)", "Potency": "inconclusive: 18.5 µM [inhibitor, single point]"},
      {"smiles": "CN(Cc1ccccc1)c1ccc(N2C(=O)CCC2=O)cc1[N+](=O)[O-]", "Potency": "inactive"},
      {"smiles": "CC1(CCC(=O)N2CCCC(Nc3ccc(F)cc3)C2)CC1", "note": "(stereo unspecified)", "Potency": "inconclusive: 11.7 µM [inhibitor, single point]"},
      {"smiles": "COc1ccccc1CNC(=O)Cn1nc(C(F)(F)F)cc1C", "Potency": "active: 14.7 µM"},
      {"smiles": "CCN(C(=O)c1cccs1)c1nnc(-c2ccncc2)s1", "activity change, negative = inhibition": "inactive: 5.28% [at 5.75 µM]"},
      {"smiles": "O=C(c1ccc(F)cc1F)N1CCCc2ccccc21", "Potency": "inactive"},
      {"smiles": "Cc1c(Cc2ccccc2)c(=O)oc2c(C)c(OCC(=O)NCc3ccccn3)ccc12", "Potency": "inconclusive: 5.22 µM [inhibitor, partial curve]"},
      {"smiles": "COc1ccccc1CN1CC(C(=O)NCc2cc(F)ccc2C)CCC1=O", "note": "(stereo unspecified)", "Potency": "inconclusive: 18.5 µM [inhibitor, single point]"},
      {"smiles": "O=C(c1ccc2ncsc2c1)N1CCN(c2cccc(C(F)(F)F)c2)CC1", "Potency": "inconclusive: 11.7 µM [inhibitor, single point]"},
      {"smiles": "O=C(Nc1ncccc1O)c1ccc(S(=O)(=O)N2CCCCCC2)cc1", "Potency": "active: 5.22 µM"},
      {"smiles": "CCc1sc(C(=O)NCc2ccco2)cc1C", "Potency": "inactive"},
      {"smiles": "O=C(CCCc1c[nH]c2ccccc12)Nc1ccc2ccccc2c1", "Potency": "inactive"},
      {"smiles": "COC(=O)c1ccc(Nc2c([N+](=O)[O-])c(=O)oc3ccccc23)cc1", "Potency": "inconclusive: 0.0165 µM [inhibitor, full curve]"},
      {"smiles": "CC(=O)Nc1ccccc1C(=O)OCC(=O)c1ccccc1Cl", "Potency": "inactive"},
      {"smiles": "COc1ccccc1CNC(=O)CSc1nnc2c(n1)[nH]c1ccc(F)cc12", "Potency": "inconclusive: 10.4 µM [inhibitor, single point]"},
      {"smiles": "Nc1ccc(C23CC4CC(CC(CO)(C4)C2)C3)cc1", "Potency": "inconclusive: 0.0294 µM [inhibitor, full curve, poor fit]"},
      {"smiles": "O=C(NC1CCCCCC1)C1CCN(S(=O)(=O)c2cnc[nH]2)CC1", "Potency": "inconclusive: 8.28 µM [inhibitor, partial curve, poor fit]"},
      {"smiles": "Cc1cc(=O)oc2cc(OCC(=O)N3CCC(O)CC3)c(Cl)cc12", "Potency": "inconclusive: 18.5 µM [inhibitor, single point]"},
      {"smiles": "COc1ccccc1NC(=O)CSc1nnc(-c2ccoc2C)n1C", "Potency": "inactive"},
      {"smiles": "Cc1ccc(-c2nn[nH]n2)o1", "Potency": "inconclusive: 4.15 µM [inhibitor, single point]"},
      {"smiles": "O=C(NC(=S)N1CCCc2ccccc21)c1ccc([N+](=O)[O-])cc1", "Potency": "active: 7.38 µM"},
      {"smiles": "O=C(O)COc1ccccc1/C=C1\\SC(=Nc2ccc(F)cc2)N(c2ccc(F)cc2)C1=O", "Potency": "inconclusive: 8.28 µM [inhibitor, partial curve]"},
      {"smiles": "CC1(CC(=O)N/N=C/c2cc3c(cc2Br)OCO3)OCCO1", "Potency": "inconclusive: 0.522 µM [inhibitor, partial curve, poor fit]"},
      {"smiles": "Cc1ccc(F)cc1NC(=O)CN1CCN(c2ccccn2)CC1", "Potency": "inconclusive: 11.7 µM [inhibitor, partial curve, poor fit]"},
      {"smiles": "Cc1nc(N2CCOCC2)nc(N2CCCCC2C)c1[N+](=O)[O-]", "note": "(stereo unspecified)", "Potency": "inconclusive: 3.29 µM [inhibitor, full curve]"},
      {"smiles": "COc1cc(CO)cc(-c2cc(CO)cc(OC)c2OC)c1OC", "Potency": "inconclusive: 0.0033 µM [inhibitor, full curve, poor fit]"},
      {"smiles": "Cc1oc(=O)c(NC(=O)c2ccccc2)cc1C(N)=O", "Potency": "inconclusive: 2.94 µM [inhibitor, partial curve]"},
      {"smiles": "CCOC(=O)c1[nH]c(C)c(/C(O)=C2\\C(=O)C(=O)N(CCN3CCOCC3)C2c2cccs2)c1C", "note": "(stereo unspecified)", "Potency": "inconclusive: 16.5 µM [inhibitor, single point]"},
      {"smiles": "C#CCOc1ccccc1/C=C1/C(=O)ON=C1C", "Potency": "inconclusive: 2.08 µM [inhibitor, full curve]"},
      {"smiles": "Fc1ccc(CNC(=S)NCc2ccccc2)cc1", "Potency": "inconclusive: 18.5 µM [inhibitor, single point]"},
      {"smiles": "Cc1cc(C)c(NC(=O)CN(C)C(=O)c2ccc(OCc3ccccc3)cc2)c(C)c1", "Potency": "inactive"},
      {"smiles": "NC(=O)c1cc([N+](=O)[O-])ccc1NCCc1ccccc1", "Potency": "active: 13.1 µM"},
      {"smiles": "COCCn1c(C)cc(C(=O)COC(=O)c2ccc3ncsc3c2)c1C", "Potency": "inconclusive: 2.94 µM [inhibitor, full curve, poor fit]"}
    ]}
  ]
}
